Results on one substance are retold here after publication PMC5871759.

Amino acid sequences for entries named in this document (tags omitted). A change or cut given only in a name is not applied to a line headed by its entry.
UniProt Q8IZD2: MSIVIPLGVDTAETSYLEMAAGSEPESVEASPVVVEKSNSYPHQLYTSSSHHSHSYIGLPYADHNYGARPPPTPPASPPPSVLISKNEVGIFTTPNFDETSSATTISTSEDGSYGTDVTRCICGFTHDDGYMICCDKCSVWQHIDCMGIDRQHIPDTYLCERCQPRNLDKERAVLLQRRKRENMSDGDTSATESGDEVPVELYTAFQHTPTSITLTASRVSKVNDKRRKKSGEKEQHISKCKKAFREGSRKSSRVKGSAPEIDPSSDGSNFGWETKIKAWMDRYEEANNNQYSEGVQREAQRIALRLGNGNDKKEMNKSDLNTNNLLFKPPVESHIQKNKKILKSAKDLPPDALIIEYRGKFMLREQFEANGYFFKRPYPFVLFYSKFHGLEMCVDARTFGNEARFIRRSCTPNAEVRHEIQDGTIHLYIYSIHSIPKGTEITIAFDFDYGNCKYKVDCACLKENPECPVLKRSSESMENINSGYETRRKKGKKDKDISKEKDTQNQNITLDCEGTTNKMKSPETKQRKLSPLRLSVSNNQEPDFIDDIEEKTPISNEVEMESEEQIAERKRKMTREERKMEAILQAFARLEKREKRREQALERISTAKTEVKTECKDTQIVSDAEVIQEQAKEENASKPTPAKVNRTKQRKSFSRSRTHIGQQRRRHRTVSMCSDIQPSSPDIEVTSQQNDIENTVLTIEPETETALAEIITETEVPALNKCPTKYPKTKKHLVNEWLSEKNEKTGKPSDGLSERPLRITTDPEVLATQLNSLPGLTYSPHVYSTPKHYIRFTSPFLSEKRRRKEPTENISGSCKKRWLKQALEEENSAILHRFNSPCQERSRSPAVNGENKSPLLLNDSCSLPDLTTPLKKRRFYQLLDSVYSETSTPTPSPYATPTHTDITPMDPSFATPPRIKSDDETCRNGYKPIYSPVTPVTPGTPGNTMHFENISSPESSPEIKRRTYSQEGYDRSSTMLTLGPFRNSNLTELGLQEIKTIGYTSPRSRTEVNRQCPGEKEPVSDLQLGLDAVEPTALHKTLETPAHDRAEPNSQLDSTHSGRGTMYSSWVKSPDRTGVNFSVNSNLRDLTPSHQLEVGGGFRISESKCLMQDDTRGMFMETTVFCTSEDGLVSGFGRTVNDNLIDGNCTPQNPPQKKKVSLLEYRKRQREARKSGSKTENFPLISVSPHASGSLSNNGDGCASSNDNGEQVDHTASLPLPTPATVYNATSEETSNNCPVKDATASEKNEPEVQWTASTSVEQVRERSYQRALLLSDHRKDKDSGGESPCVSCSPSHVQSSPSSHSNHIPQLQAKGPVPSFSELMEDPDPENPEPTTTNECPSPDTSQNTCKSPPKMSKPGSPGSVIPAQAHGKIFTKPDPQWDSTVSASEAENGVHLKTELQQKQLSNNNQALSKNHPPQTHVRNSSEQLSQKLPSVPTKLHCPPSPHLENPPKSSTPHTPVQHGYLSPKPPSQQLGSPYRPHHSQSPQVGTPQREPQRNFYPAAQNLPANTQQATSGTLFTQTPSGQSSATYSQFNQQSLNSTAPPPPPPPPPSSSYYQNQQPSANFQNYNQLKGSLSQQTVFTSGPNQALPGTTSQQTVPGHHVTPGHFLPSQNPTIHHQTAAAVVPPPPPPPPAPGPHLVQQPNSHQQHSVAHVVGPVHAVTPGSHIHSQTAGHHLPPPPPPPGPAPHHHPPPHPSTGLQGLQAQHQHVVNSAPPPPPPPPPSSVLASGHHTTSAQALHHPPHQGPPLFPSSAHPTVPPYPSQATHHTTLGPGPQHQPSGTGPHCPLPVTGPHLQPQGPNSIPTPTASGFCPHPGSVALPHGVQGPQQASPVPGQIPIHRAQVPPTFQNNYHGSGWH
UniProt O95786: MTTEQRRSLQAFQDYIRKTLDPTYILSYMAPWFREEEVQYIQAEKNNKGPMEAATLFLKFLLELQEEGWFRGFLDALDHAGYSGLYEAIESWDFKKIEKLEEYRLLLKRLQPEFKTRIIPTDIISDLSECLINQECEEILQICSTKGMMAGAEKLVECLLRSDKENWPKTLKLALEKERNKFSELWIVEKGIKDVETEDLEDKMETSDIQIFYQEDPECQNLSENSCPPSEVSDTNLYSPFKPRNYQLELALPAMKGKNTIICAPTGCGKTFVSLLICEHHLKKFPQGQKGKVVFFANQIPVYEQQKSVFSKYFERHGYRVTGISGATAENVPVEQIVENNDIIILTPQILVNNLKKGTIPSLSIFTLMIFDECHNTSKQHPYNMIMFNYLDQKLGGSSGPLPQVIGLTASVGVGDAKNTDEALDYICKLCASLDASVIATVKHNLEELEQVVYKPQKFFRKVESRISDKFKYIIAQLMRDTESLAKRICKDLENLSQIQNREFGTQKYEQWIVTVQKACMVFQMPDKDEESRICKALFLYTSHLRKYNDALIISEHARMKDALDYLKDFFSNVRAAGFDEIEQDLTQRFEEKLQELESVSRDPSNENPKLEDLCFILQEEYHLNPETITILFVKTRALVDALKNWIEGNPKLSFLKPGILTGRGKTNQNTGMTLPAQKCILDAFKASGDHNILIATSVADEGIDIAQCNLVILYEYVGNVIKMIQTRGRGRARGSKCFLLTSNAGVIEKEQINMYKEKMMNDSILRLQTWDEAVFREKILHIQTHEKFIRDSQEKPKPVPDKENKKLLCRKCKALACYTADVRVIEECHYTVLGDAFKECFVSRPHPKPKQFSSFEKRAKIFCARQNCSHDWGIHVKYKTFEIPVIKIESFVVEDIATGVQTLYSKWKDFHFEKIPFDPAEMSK

Results are given in words; binding and its absence hold for the method and conditions named. In cells and extracts the contact can be indirect.

In the assay the target is truncated MLL5 mutant lacking the SET domain (MLL5-FLAG truncated vector) (human) (UniProt Q8IZD2). Description: co-IP; HEK293T cotransfected with tagged plasmids, whole-cell extracts 48 h after transfection; lysis buffer 1% NP-40, 20 mM HEPES, 20 mM KCl, 150 mM NaCl, 5 mM EDTA, pH 7.4; Protein-G Sepharose with anti-FLAG or anti-V5, 4 °C; in Fig. 6b also with MLL5-HA plasmid (0, 1000, 3000 ng).

In the case of RIG-I-HA (from UniProt O95786 1-925), the binding entry is “no binding”.
